# Source: article PMC5996148
# The other results are listed elsewhere or left out.
# Experiments:
# Experiment in all cases: protein microarray (ProtoArray v5.0), streptavidin-Alexa Fluor 647
# Conditions in all cases: 3'-biotin; 20 mM Tris (pH 7.5), 5 mM MgCl2, 100 mM KCl, 0.1% Tween-20, A/T-rich and random oligonucleotide blockers; temperature not stated; high values mean tight binding
# Tesmin (human) = tested on: Tesmin (human)
# Tetraspanin-4 (human) = tested on: Tetraspanin-4 (human)
# [1] = tested on: Tetratricopeptide repeat protein 1 (human)
# [2] = tested on: Thiamin pyrophosphokinase 1 (human)
# [3] = tested on: Thimet oligopeptidase (human)
# [4] = tested on: Thioredoxin reductase 1, cytoplasmic (human)
# [5] = tested on: Thrombospondin type-1 domain-containing protein 4 (human)
# [6] = tested on: Thymosin beta-4, Y-chromosomal (human)
# [7] = tested on: Thyroid receptor-interacting protein 11 (human)
# Titin (human) = tested on: Titin (human)
sequence,measurement,setting,value
GGGAGGCTGAGGCAGG [G4-1 biotinylated (PQS2)],binding signal,Tesmin (human),-0.36 z-score
same,binding signal,Tetraspanin-4 (human),-0.303 z-score
same,binding signal,[1],-0.346 z-score
same,binding signal,[2],-0.307 z-score
same,binding signal,[3],-0.299 z-score
same,binding signal,[4],-0.316 z-score
same,binding signal,[5],-0.308 z-score
same,binding signal,[6],-0.353 z-score
same,binding signal,[7],-0.336 z-score
same,binding signal,Titin (human),-0.311 z-score
